The list shows only some results of the screen, not a fair sample: it is rich in T/C values a quarter to a half above the control, in often repeated tests (any T/C) and in doses without a T/C. Other doses and runs of a compound stand elsewhere. T/C is the treated group as % of the vehicle group. Some doses have a count of surviving animals in place of a T/C: the source files T/C as zero there, which appears to mark a toxic dose or a test without result, not a measured value. Some doses without a T/C left all or most animals alive at the check, yet need not have been tolerated: the source hardly ever lists a survival T/C far under the control, and the zero likely stands for such cases as well. Counts of survivors are from the toxicity check (mostly the fifth day) where no day follows; animals may have died later. Schedules are NCI's codes, taken here to give the interval after Q, in days (D) or hours (H), and the number of doses after X. Some entries were tested several times; the results are listed from low to high. For survival time, the PubChem record calls one and a half times the control and up active, and a quarter to a half above the control has no call in these data; cut-offs in other NCI protocols can differ. Brackets with × count equal records among those shown. Some schedule codes hold Z or #, which are not explained here. Some T/C values are followed by the survivors on the day toxicity was checked, most often the fifth; without a count, all were alive then.
Tested on: L1210 leukemia ip in BDF1 mice, survival T/C
Experiment: NCI In Vivo Anticancer Drug Screen. Data for tumor model L1210 Leukemia (intraperitoneal) in B6D2F1 (BDF1) mice
Settings: higher T/C = longer survival
[1] = T/C endpoint: mean survival time, dose: 200.0 mg/kg/injection, schedule: Q01DX001 (ip), vehicle: saline
[2] = T/C endpoint: mean survival time, dose: 400.0 mg/kg/injection, schedule: Q01DX001 (ip), vehicle: saline
[3] = T/C endpoint: mean survival time, dose: 200.0 mg/kg/injection, schedule: Q04DX003 (ip), vehicle: saline
[4] = T/C endpoint: mean survival time, dose: 400.0 mg/kg/injection, schedule: Q04DX003 (ip), vehicle: saline
[5] = T/C endpoint: mean survival time, dose: 100.0 mg/kg/injection, schedule: Q04DX002 (ip), vehicle: Klucel (hydroxypropylcellulose) (HPC)
[6] = T/C endpoint: mean survival time, dose: 200.0 mg/kg/injection, schedule: Q04DX002 (ip), vehicle: Klucel (hydroxypropylcellulose) (HPC)
[7] = T/C endpoint: mean survival time, dose: 400.0 mg/kg/injection, schedule: Q04DX002 (ip), vehicle: Klucel (hydroxypropylcellulose) (HPC)
[8] = T/C endpoint: mean survival time, dose: 150.0 mg/kg/injection, schedule: Q04DX003 (ip), vehicle: saline with Tween-80
[9] = T/C endpoint: mean survival time, dose: 400.0 mg/kg/injection, schedule: Q04DX003 (ip), vehicle: saline with Tween-80
[10] = T/C endpoint: mean survival time, dose: 50.0 mg/kg/injection, schedule: Q01DX009 (ip), vehicle: saline with Tween-80

## CCn1cnc2c(=S)nc[nH]c21
T/C endpoint: mean survival time, dose: 60.0 mg/kg/injection, schedule: Q01DX009 (ip), vehicle: other
  T/C: 131 % of control
T/C endpoint: mean survival time, dose: 60.0 mg/kg/injection, schedule: Q01DX009 (oral), vehicle: other
  T/C: 134 % of control
T/C endpoint: mean survival time, dose: 60.0 mg/kg/injection, schedule: Q01DX009 (sc), vehicle: other
  T/C: 149 % of control
T/C endpoint: mean survival time, dose: 74.0 mg/kg/injection, schedule: Q01DX Z (oral), vehicle: carboxymethylcellulose (CMC)
  T/C: 134 % of control [5 of 6 alive]
T/C endpoint: mean survival time, dose: 120.0 mg/kg/injection, schedule: Q## X016 (ip), vehicle: other
  T/C: 126 % of control
T/C endpoint: mean survival time, dose: 120.0 mg/kg/injection, schedule: Q## X024 (ip), vehicle: other
  T/C: 141 % of control
T/C endpoint: mean survival time, dose: 125.0 mg/kg/injection, schedule: Q01DX009 (ip), vehicle: saline
  T/C: 125 and 141 % of control
T/C endpoint: mean survival time, dose: 125.0 mg/kg/injection, schedule: Q01DX010 (ip), vehicle: saline
  T/C: 133 % of control
T/C endpoint: mean survival time, dose: 150.0 mg/kg/injection, schedule: Q## X003 (ip), vehicle: other
  T/C: 126 % of control
T/C endpoint: mean survival time, dose: 240.0 mg/kg/injection, schedule: Q## X008 (ip), vehicle: other
  T/C: 138 % of control
T/C endpoint: mean survival time, dose: 250.0 mg/kg/injection, schedule: Q01DX010 (ip), vehicle: saline
  survivor count: 1 of 6 and 2 of 6
T/C endpoint: mean survival time, dose: 300.0 mg/kg/injection, schedule: Q01DX001 (ip), vehicle: other
  T/C: 128 % of control
T/C endpoint: mean survival time, dose: 300.0 mg/kg/injection, schedule: Q01DX001 (sc), vehicle: other
  T/C: 131 % of control
T/C endpoint: mean survival time, dose: 300.0 mg/kg/injection, schedule: Q## X002 (ip), vehicle: other
  T/C: 140 % of control
T/C endpoint: mean survival time, dose: 600.0 mg/kg/injection, schedule: Q01DX001 (ip), vehicle: other
  T/C: 147 % of control
T/C endpoint: mean survival time, dose: 600.0 mg/kg/injection, schedule: Q## X002 (ip), vehicle: other
  T/C: 138 % of control
T/C endpoint: mean survival time, dose: 1200.0 mg/kg/injection, schedule: Q01DX001 (oral), vehicle: other
  T/C: 142 % of control

## NC(=S)NN=C1CCCCCCCCC1
[1]
  survivor count: 0 of 4
[2]
  survivor count: 0 of 4

## Cc1ccc(NC(=S)NC(=O)c2cccc([N+](=O)[O-])c2)cc1C
T/C endpoint: mean survival time, dose: 100.0 mg/kg/injection, schedule: Q01DX009 (ip), vehicle: saline with Tween-80
  T/C: 93, 94, 102, 105 % of control
T/C endpoint: mean survival time, dose: 200.0 mg/kg/injection, schedule: Q01DX009 (ip), vehicle: saline with Tween-80
  T/C: 87, 102, 105 % of control (2×)
T/C endpoint: mean survival time, dose: 400.0 mg/kg/injection, schedule: Q01DX009 (ip), vehicle: saline with Tween-80
  T/C: 87, 91, 92 [5 of 6 alive], 96 % of control

## CCC(C(C)=O)C(C)=O.CCC(C(C)=O)C(C)=O.[Cu]
T/C endpoint: mean survival time, dose: 50.0 mg/kg/injection, schedule: Q01DX001 (ip), vehicle: saline
  survivor count: 0 of 6
T/C endpoint: mean survival time, dose: 100.0 mg/kg/injection, schedule: Q01DX001 (ip), vehicle: saline
  survivor count: 0 of 6
[1]
  survivor count: 0 of 6

## CCC[As](=O)(O)C(C)C
[3]
  survivor count: 3 of 6
[4]
  survivor count: 0 of 6

## CCN(CC)CCCOC(=O)/C=C/c1c(C)[nH]c(=O)[nH]c1=O
T/C endpoint: mean survival time, dose: 100.0 mg/kg/injection, schedule: Q04DX003 (ip), vehicle: saline
  survivor count: 5 of 6
[3]
  survivor count: 1 of 6
[4]
  survivor count: 0 of 6

## N#CC(C#N)=C(C#N)C#N
T/C endpoint: mean survival time, dose: 12.5 mg/kg/injection, schedule: Q01DX009 (ip), vehicle: Klucel (hydroxypropylcellulose) (HPC)
  survivor count: 0 of 6

## CCOc1ccccc1NC(=O)c1ccc(Cl)cc1Cl
T/C endpoint: mean survival time, dose: 200.0 mg/kg/injection, schedule: Q04DX003 (ip), vehicle: Klucel (hydroxypropylcellulose) (HPC)
  survivor count: 6 of 6
T/C endpoint: mean survival time, dose: 400.0 mg/kg/injection, schedule: Q04DX003 (ip), vehicle: Klucel (hydroxypropylcellulose) (HPC)
  survivor count: 6 of 6

## COc1cccc2c1C(=O)c1c(O)c3c(c(O)c1C2=O)C[C@@](O)(C(C)=O)C[C@@H]3OC1CC(NC(C)=O)C(O)C(C)O1 (some centres undefined)
T/C endpoint: mean survival time, dose: 15.0 mg/kg/injection, schedule: Q01DX009 (ip), vehicle: saline
  T/C: 125 % of control
T/C endpoint: mean survival time, dose: 20.0 mg/kg/injection, schedule: Q01DX009 (ip), vehicle: propolene glycol
  T/C: 135 % of control
T/C endpoint: mean survival time, dose: 30.0 mg/kg/injection, schedule: Q01DX009 (ip), vehicle: saline
  T/C: 130 % of control
T/C endpoint: mean survival time, dose: 40.0 mg/kg/injection, schedule: Q01DX009 (ip), vehicle: propolene glycol
  T/C: 135 % of control
T/C endpoint: mean survival time, dose: 80.0 mg/kg/injection, schedule: Q01DX001 (ip), vehicle: saline
  T/C: 127 % of control
T/C endpoint: mean survival time, dose: 80.0 mg/kg/injection, schedule: Q01DX009 (ip), vehicle: propolene glycol
  T/C: 135 % of control
T/C endpoint: mean survival time, dose: 160.0 mg/kg/injection, schedule: Q01DX009 (ip), vehicle: propolene glycol
  survivor count: 6 of 6
T/C endpoint: median survival time, dose: 150.0 mg/kg/injection, schedule: Q01DX001 (ip), vehicle: propolene glycol, evaluated on day 5
  T/C: 135 % of control
T/C endpoint: median survival time, dose: 150.0 mg/kg/injection, schedule: Q01DX001 (ip), vehicle: propolene glycol, evaluated on day 30
  T/C: 133 % of control
T/C endpoint: median survival time, dose: 300.0 mg/kg/injection, schedule: Q01DX001 (ip), vehicle: propolene glycol, evaluated on day 5
  T/C: 139 % of control
T/C endpoint: median survival time, dose: 300.0 mg/kg/injection, schedule: Q01DX001 (ip), vehicle: propolene glycol, evaluated on day 30
  T/C: 133 % of control

## CCCCCCCCCCCC[N+](CCCCCCCCCCCC)=C1SCCS1
[5]
  survivor count: 0 of 3
[6]
  survivor count: 0 of 3
[7]
  survivor count: 1 of 3

## FCCSc1ncnc2nc[nH]c12
T/C endpoint: mean survival time, dose: 44.0 mg/kg/injection, schedule: Q04DX003 (ip), vehicle: saline with Tween-80
  T/C: 136 % of control [5 of 6 alive]
T/C endpoint: mean survival time, dose: 66.0 mg/kg/injection, schedule: Q04DX003 (ip), vehicle: saline with Tween-80
  T/C: 125 [5 of 6 alive] and 137 % of control
T/C endpoint: mean survival time, dose: 100.0 mg/kg/injection, schedule: Q04DX003 (ip), vehicle: saline with Tween-80
  T/C: 132 % of control
[8]
  T/C: 128 % of control
T/C endpoint: mean survival time, dose: 200.0 mg/kg/injection, schedule: Q04DX003 (ip), vehicle: saline with Tween-80
  survivor count: 0 of 6
[9]
  survivor count: 0 of 6

## O=C(CCl)NC(=O)CCl
[2]
  survivor count: 2 of 6
[9]
  survivor count: 0 of 6

## Cc1ccc2cccc(O)c2n1
T/C endpoint: mean survival time, dose: 50.0 mg/kg/injection, schedule: Q04DX002 (ip), vehicle: Klucel (hydroxypropylcellulose) (HPC)
  survivor count: 3 of 3
[5]
  survivor count: 3 of 3
[6]
  survivor count: 3 of 3

## O=C1NCC2C3CCC(O3)C12 (centres undefined)
T/C endpoint: mean survival time, dose: 200.0 mg/kg/injection, schedule: Q04DX002 (ip), vehicle: saline
  T/C: 132 % of control [2 of 3 alive]

## O=S(=O)(O)SCNCNCCSCc1ccccc1
[5]
  survivor count: 0 of 3
[6]
  survivor count: 0 of 3
[7]
  survivor count: 0 of 3

## COc1cccc2c1C(=O)c1c(O)c3c(c(O)c1C2=O)CC(O)(C(C)=O)CC3OC1CC(NC(=S)Nc2ccccc2)C(O)C(C)O1 (centres undefined)
T/C endpoint: mean survival time, dose: 18.75 mg/kg/injection, schedule: Q04DX003 (ip), vehicle: saline with Tween-80
  T/C: 129 % of control
T/C endpoint: mean survival time, dose: 25.0 mg/kg/injection, schedule: Q01DX009 (ip), vehicle: saline with Tween-80
  T/C: 138 % of control
T/C endpoint: mean survival time, dose: 27.5 mg/kg/injection, schedule: Q04DX003 (ip), vehicle: saline with Tween-80
  T/C: 126 % of control
[10]
  T/C: 127 % of control
T/C endpoint: mean survival time, dose: 75.0 mg/kg/injection, schedule: Q04DX003 (ip), vehicle: saline with Tween-80
  T/C: 131 % of control
[8]
  T/C: 133 % of control

## Cc1ccc(NC2=NCCO2)cc1
T/C endpoint: mean survival time, dose: 400.0 mg/kg/injection, schedule: Q01DX001 (ip), vehicle: carboxymethylcellulose (CMC)
  survivor count: 1 of 4

## COc1ccc(NC(=O)CCN2CC2)cc1
T/C endpoint: mean survival time, dose: 150.0 mg/kg/injection, schedule: Q01DX009 (ip), vehicle: alcohol
  survivor count: 1 of 6
T/C endpoint: mean survival time, dose: 225.0 mg/kg/injection, schedule: Q01DX009 (ip), vehicle: alcohol
  survivor count: 0 of 6
T/C endpoint: mean survival time, dose: 335.0 mg/kg/injection, schedule: Q01DX009 (ip), vehicle: alcohol
  survivor count: 0 of 6
T/C endpoint: mean survival time, dose: 400.0 mg/kg/injection, schedule: Q01DX001 (ip), vehicle: alcohol
  survivor count: 3 of 6

## N/C(=N/N=C/c1ccccn1)N[N+](=O)[O-]
[10]
  survivor count: 3 of 6

From PubChem BioAssay AID248 (DTP/NCI, 2004)
